Results published in patent US8969383B2, “Picolinamide derivatives as TTX-S blockers” (RaQualia Pharma Inc., priority 2009, dated 2015).
Some of these results come from one statement about several compounds together.

Chains of the proteins cited; added tags and fusions are not shown.
UniProt Q9NY46, whole entry: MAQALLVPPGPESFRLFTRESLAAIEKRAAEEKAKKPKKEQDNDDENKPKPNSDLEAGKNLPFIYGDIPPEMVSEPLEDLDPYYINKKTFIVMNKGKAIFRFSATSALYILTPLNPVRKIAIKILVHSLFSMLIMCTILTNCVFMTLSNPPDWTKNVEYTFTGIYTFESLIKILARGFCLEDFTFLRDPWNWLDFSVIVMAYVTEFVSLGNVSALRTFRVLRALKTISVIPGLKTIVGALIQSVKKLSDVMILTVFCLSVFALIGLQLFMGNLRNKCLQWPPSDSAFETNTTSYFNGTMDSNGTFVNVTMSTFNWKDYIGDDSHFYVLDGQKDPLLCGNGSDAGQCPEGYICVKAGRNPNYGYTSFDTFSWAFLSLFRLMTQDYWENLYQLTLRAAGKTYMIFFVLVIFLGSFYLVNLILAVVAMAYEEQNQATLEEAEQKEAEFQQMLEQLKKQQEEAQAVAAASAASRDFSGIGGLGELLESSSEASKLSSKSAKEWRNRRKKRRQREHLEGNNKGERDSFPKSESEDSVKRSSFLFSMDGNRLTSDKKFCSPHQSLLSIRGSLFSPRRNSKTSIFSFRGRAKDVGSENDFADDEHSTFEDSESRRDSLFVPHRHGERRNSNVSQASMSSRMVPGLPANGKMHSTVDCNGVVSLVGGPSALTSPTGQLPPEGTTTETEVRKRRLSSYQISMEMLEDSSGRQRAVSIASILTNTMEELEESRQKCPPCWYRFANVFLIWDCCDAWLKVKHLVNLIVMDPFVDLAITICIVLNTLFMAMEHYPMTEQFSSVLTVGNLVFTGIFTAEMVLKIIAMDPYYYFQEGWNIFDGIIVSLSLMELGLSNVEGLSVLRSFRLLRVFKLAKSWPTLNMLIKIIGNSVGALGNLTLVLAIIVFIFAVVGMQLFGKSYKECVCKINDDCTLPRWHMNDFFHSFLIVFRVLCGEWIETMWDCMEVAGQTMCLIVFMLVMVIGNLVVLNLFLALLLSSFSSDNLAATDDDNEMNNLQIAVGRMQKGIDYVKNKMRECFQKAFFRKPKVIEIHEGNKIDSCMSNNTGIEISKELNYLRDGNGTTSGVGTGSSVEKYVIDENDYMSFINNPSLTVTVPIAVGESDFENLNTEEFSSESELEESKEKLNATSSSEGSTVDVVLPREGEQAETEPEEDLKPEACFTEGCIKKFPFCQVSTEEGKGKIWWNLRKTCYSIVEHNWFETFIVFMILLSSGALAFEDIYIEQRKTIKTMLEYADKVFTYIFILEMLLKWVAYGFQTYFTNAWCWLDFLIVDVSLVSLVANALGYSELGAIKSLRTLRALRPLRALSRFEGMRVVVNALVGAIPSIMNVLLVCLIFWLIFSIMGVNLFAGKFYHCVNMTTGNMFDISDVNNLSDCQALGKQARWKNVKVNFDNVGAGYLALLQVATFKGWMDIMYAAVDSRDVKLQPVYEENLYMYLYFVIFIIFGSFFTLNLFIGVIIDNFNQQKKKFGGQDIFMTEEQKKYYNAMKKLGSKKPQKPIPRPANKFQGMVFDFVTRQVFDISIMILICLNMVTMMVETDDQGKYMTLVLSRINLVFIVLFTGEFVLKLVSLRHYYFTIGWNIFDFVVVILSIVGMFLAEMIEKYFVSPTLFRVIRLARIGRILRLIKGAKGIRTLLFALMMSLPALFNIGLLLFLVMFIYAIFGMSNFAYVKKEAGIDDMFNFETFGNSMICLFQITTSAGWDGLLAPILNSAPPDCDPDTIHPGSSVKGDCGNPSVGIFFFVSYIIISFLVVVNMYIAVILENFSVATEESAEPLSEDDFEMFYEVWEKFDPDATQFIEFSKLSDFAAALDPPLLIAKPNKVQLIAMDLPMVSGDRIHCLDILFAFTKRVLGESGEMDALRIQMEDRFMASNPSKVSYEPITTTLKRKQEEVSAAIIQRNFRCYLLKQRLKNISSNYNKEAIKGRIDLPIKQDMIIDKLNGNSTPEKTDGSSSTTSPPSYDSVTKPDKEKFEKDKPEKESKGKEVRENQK
UniProt Q15858, whole entry: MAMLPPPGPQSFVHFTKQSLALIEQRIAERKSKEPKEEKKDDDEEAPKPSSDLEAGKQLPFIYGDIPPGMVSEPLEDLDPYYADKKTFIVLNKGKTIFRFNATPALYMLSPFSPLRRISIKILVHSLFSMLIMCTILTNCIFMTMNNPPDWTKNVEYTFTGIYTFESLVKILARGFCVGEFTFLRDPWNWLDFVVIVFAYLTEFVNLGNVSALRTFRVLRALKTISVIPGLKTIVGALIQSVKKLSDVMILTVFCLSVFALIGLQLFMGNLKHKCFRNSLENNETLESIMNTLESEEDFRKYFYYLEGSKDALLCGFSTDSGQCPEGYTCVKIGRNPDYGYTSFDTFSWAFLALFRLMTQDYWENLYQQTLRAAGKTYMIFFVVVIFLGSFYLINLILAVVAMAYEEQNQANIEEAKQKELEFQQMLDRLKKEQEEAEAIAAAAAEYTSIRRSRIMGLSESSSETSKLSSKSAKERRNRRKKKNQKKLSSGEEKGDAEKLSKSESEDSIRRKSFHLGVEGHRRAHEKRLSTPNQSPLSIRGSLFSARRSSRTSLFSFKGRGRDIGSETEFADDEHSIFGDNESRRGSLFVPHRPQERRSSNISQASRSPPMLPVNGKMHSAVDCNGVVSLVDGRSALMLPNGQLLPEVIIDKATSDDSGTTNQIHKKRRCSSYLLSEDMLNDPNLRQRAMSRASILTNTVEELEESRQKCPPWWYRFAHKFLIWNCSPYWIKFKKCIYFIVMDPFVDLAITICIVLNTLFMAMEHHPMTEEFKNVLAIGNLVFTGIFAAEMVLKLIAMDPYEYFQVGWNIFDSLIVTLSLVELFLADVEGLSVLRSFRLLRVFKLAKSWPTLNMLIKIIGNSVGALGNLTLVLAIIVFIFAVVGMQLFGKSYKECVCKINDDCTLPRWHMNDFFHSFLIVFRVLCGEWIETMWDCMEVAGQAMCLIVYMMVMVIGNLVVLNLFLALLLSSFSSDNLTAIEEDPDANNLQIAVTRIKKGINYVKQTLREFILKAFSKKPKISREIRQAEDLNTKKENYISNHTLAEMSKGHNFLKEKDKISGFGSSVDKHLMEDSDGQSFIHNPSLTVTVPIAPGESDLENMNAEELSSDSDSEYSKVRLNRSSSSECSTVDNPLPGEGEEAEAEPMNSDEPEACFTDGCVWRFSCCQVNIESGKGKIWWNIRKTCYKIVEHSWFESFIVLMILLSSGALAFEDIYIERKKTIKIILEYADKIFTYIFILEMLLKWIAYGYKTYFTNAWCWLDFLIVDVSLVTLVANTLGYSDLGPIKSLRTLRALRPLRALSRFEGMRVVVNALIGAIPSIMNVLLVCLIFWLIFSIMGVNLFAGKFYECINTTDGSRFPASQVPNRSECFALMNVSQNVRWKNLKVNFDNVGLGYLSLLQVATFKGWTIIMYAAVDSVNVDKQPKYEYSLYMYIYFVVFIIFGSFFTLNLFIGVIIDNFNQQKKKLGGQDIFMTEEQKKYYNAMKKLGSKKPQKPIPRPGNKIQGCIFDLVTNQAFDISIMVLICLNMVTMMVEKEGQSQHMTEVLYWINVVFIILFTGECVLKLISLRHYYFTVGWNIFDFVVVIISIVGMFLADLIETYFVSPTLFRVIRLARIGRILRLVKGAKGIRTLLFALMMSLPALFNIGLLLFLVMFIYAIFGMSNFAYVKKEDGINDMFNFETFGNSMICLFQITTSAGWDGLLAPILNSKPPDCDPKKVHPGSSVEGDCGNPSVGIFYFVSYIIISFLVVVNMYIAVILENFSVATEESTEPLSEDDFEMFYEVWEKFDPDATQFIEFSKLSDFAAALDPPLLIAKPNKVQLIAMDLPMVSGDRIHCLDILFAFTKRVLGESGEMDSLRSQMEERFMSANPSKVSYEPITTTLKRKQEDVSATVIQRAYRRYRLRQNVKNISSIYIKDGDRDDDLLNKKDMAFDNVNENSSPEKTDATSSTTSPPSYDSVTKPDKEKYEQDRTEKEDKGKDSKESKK

Legend:
[1] = system: TTX-R and TTX-S sodium channels; conditions: background statement; mixed units (microM, mM) printed within the value; cited from earlier work
human Nav1.3 = target: T1, human Nav1.3 (Homo sapiens, UniProt Q9NY46); experiment: FRET assay, human Nav1.3 channels expressed in HEK293 cells; type: cell-based; conditions: HEK293 cells expressing human NaV1.3, veratridine-opened channels
T1 construct: expressed in transfected cells; host or cells: HEK293
Method: (§1) The ability of the picolinamide derivatives of the formula (I) to inhibit the NaV1.3,Nav1.7 and Nav1.5 channels was measured by FRET assay and electrophysiology assay described below.
(§2) This screen is used to determine the effects of compounds on human Nav1.3, human Nav1.7, and human Nav1.5 channels, utilising the cell imaging technology by Hamamatsu Photonics's Functional Drug Screening System (FDSS). This experiment is based on FRET (Fluorescence Resonance Energy Transfer) and uses two fluorescent molecules. The first molecule, Oxonol (DiSBAC2(3)), is a highly fluorescent, negatively charged, hydrophobic ion that “senses” the trans-membrane electrical potential. […] The voltage dependent redistribution is transduced into a ratiometric fluorescent readout via a second fluorescent molecule (Coumarin (CC2-DMPE)) that binds specifically to one face of the plasma membrane and functions as a FRET partner to the mobile voltage-sensing ion. […]
(§3) The data was analyzed and reported as normalized ratios of intensities measured in the 465 nm and 575 nm channels. […]
(§4) “FI465B”=the mean of fluorescence intensity as baseline (before Na+ ligand addition) at 465 nm
(§5) “FI575B”=the mean of fluorescence intensity as baseline (before Na+ ligand addition) at 575 nm
(§6) “FI465Max”=maximum fluorescence intensity at 465 nm after Na+ stimulation
(§7) “FI575 Min”=minimum fluorescence intensity at 575 nm after Na+ stimulation […]

human Nav1.7 = target: T2, human Nav1.7 (Homo sapiens, UniProt Q15858); experiment: FRET assay, human Nav1.7 channels expressed in CHO cells; type: cell-based; conditions: CHO cells expressing human NaV1.7, veratridine-opened channels
T2 construct: expressed in transfected cells; host or cells: CHO
Method: as §1, §2, §3, §4, §5, §6, §7

## FC(F)(F)C(Cl)Br (stereo not shown) [halothane]
[1]
  IC50: 0.05 to 10 mM

## CCN(CC)CC(=O)Nc1c(C)cccc1C [lidocaine]
[1]
  IC50: 0.05 to 10 mM

## N-(1H-1,2,4-triazol-5-yl)-3-(((R)- 1-(trans-4-(trifluoromethyl) cyclohexanecarbonyl)pyrrolidin-2- yl)methoxy)picolinamide [Example 50]
Human Nav1.3
  IC50: ≤ 500 nM
Human Nav1.7
  IC50: ≤ 500 nM
